Measured values taken from publication PMC5495831.
These are yes or no findings as the source states them, for the method shown. Binding seen in cells or lysates may run through a third protein. Some results given as binding are weak or reduced against the parent protein; the word gives no strength. Blank lines part the entries; values can stand above or below the molecule they belong to.

Sequences of proteins named here, by UniProt entry; tags and fusion partners are left off. Residues count along the entry.
UniProt Q63604, residues 32-821: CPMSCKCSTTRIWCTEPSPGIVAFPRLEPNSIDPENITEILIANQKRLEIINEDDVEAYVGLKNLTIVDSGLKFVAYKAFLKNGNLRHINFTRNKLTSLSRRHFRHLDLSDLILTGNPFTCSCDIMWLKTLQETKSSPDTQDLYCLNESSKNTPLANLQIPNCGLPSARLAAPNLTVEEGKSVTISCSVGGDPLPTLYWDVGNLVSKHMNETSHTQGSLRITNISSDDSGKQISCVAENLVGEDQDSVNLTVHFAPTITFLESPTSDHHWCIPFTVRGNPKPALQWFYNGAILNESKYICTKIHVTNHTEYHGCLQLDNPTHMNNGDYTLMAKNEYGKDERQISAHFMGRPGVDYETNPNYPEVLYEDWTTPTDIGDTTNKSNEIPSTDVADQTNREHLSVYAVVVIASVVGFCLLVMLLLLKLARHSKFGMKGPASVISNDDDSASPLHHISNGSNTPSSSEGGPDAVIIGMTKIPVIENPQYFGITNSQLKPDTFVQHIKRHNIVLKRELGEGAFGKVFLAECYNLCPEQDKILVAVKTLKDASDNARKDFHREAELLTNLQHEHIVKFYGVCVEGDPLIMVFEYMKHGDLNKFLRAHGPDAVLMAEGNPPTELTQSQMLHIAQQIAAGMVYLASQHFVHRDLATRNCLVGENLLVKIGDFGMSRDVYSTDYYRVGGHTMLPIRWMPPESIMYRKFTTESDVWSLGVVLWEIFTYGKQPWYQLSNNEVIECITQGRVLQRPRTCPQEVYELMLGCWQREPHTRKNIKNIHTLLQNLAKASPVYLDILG
UniProt P29476: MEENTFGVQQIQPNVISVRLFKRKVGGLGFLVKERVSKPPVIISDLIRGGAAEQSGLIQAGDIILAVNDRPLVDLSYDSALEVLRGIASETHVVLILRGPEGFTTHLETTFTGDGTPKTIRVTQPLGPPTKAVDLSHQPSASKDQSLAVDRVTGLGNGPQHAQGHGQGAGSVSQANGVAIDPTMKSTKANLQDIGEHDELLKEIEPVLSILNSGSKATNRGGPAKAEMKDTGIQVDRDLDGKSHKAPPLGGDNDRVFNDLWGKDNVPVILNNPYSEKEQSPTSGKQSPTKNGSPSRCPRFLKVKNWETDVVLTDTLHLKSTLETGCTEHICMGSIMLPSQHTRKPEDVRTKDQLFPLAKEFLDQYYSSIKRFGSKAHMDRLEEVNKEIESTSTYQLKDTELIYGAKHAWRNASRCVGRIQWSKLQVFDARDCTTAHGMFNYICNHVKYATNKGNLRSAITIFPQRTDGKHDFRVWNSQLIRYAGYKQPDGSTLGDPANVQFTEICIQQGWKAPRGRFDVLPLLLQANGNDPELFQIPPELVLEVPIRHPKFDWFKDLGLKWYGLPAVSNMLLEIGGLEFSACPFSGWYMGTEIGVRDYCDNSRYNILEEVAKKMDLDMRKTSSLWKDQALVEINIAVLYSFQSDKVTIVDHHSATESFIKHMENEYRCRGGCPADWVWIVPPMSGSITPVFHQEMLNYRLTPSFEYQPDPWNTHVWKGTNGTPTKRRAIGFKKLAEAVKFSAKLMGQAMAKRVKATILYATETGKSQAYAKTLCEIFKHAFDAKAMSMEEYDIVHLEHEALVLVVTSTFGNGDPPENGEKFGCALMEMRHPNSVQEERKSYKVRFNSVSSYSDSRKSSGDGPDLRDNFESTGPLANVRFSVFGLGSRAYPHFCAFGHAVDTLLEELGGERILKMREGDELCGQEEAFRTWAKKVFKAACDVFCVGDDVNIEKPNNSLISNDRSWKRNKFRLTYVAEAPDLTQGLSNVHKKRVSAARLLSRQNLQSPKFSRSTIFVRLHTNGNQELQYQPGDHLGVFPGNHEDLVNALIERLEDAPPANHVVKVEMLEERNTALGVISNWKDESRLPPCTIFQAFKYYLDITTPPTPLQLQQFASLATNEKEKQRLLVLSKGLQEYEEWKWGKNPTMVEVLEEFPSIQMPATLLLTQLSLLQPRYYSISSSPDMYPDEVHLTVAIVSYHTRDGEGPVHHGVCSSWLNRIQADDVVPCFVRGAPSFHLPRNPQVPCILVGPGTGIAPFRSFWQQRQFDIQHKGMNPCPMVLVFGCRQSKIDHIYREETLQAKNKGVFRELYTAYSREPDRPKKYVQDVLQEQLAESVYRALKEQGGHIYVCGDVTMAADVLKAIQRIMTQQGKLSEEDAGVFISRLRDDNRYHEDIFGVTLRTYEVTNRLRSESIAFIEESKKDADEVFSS

Biological target: BDNF receptor TrkB (rat (endogenous in primary cortical and hippocampal neuronal cultures)) (UniProt Q63604)
Experiment: co-IP; cultured cell lysates (300 ug protein) of hippocampal or cortical cultures solubilized 2 h in 50 mM Tris-HCl pH 7.5, 1% sodium deoxycholate, 4°C; overnight with TrkB antibody (Upstate # 07-225) or normal rabbit IgG; Sepharose-protein G beads; five washes with deoxycholate buffer; Western …

- binding: no binding
Molecule: neuronal nitric oxide synthase (from UniProt P29476 1-1429) (enzyme)

- binding: binds
B1: endothelial nitric oxide synthase (enzyme, UniProt Q62600 1-1202)
chain: MGNLKSVGQEPGPPCGLGLGLGLGLCGKQGPASPAPEPSQAPVPPSPTRPAPDHSPPLTRPPDGPKFPRVKNWEVGSITYDTLSAQAQQDGPCTPRRCLGSLVFPRKLQSRPTQGPSPTEQLLGQARDFINQYYNSIKRSGSQAHEQRLQEVEAEVVATGTYQLRESELVFGAKQAWRNAPRCVGRIQWGKLQVFDARDCRTAQEMFTYICNHIKYATNRGNLRSAITVFPQRYAGRGDFRIWNSQLVRYAGYRQQDGSVRGDPANVEITELCIQHGWTPGNGRFDVLPLLLQAPDEPPELFTLPPELVLEVPLEHPTLEWFAALGLRWYALPAVSNMLLEIGGLEFPAAPFSGWYMSSEIGMRDLCDPHRYNILEDVAVCMDLDTRTTSSLWKDKAAVEINVAVLYSYQLAKVTIVDHHAATASFMKHLENEQKARGGCPADWAWIVPPISGSLTPVFHQEMVNYFLSPAFRYQPDPWKGSAAKGTGITRKKTFKEVANAVKISASLMGTVMAKRVKATILYGSETGRAQSYAQQLGRLFRKAFDPRVLCMDEYDVVSLEHEALVLVVTSTFGNGDPPENGESFAAALMEMSGPYNSSPRPEQHKSYKIRFNSVSCSDPLVSSWRRKRKESSNTDSAGALGTLRFCVFGLGSRAYPHFCAFARAVDTRLEELGGERLLQLGQGDELCGQEEAFRGWAQAAFQAACETFCVGEDAKAAARDIFSPKRSWKRQRYRLSTQAESLQLLPRLTHVHRRKMFQATILSVENLQSSKSTRATILVRLDTGSQEGLQYQPGDHIGVCPPNRPGLVEALLSRVEDPPPSTEPVAVEQLEKGSPGGPPPGWVRDPRLPPCTLRQALTYFLDITSPPSPRLLRLLSTLAEESSEQQELEALSQDPRRYEEWKWFRCPTLLEVLEQFPSVALPAPLILTQLPLLQPRYYSVSSAPSAHPGEIHLTVAVLAYRTQDGLGPLHYGVCSTWMSQLKAGDPVPCFIRGAPSFRLPPDPNLPCILVGPGTGIAPFRGFWQDRLHDIEIKGLQPAPMTLVFGCRCSQLDHLYRDEVLDAQQRGVFGQVLTAFSRDPGSPKTYVQDLLRTELAAEVHRVLCLEQGHMFVCGDVTMATSVLQTVQRILATEGSMELDEAGDVIGVLRDQQRYHEDIFGLTLRTQEVTSRIRTQSFSLQERQLRGAVPWSFDPPTQETPGS
